Measurements taken from patent publication US11685954B2, “Biomarkers predictive of endocrine resistance in breast cancer” (Dana-Farber Cancer Institute, Inc., priority 2016, dated 2023).
At least one structure is not confirmed: it was looked up by name or label, or the drawing left a doubt.

Test system: phosphorylation of PAK2S141 in CSK null cells
Experiment: Immunoblot of PAK2 S141 autophosphorylation after SFK inhibitor treatment
Assay type: cell-based, human
Conditions: inhibitor treatment for 1 h, 3 h and 6 h

Q: For `Cc1nc(Nc2ncc(C(=O)Nc3c(C)cccc3Cl)s2)cc(N2CCN(CCO)CC2)n1` [Dasatinib], which “phosphorylation of PAK2S141” value is on record?
A: abrogated
